Results published in paper PMC7819943, “Rice protein-binding microarrays: a tool to detect cis-acting elements near promoter regions in rice”.
This is one part of the list.

Sequences of proteins named here, by UniProt entry; tags and fusion partners are left off.
UniProt Q0JBA9, entry or part of it: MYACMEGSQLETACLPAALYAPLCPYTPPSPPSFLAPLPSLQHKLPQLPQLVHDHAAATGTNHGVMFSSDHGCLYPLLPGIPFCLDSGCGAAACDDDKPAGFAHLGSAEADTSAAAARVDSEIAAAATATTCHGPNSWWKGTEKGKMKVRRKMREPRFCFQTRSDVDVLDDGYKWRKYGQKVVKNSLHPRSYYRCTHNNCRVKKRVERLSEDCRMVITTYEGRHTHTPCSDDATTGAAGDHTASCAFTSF

These sequences were tested against OsWRKY34 (Oryza sativa, UniProt Q0JBA9 1-250) (assay: protein-binding microarray (RPBM); PBS, 2% BSA, 51.3 ng/ul salmon testes DNA, 50 uM zinc acetate, 200 nM TF, 25 C, 1 h; high values mean tight binding). Conditions: protein: recombinant; tags: N-terminal polyhistidine and DsRed monomer fusion (pET32a); label: CyDye5-dUTP incorporated in the synthesized complementary strand; 3' TTTTT single-stranded linker to array surface; dsDNA, one strand shown.
Outline: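 An Axon 4000B scanner gave the binding signal as per-feature fluorescence intensity in arbitrary units. This followed washing of a custom Agilent array that had been incubated for 1 h at 25 °C with 200 nM protein in PBS, 2% BSA, salmon testes DNA and 50 µM zinc acetate. The proteins were transcription factors fused at the N-terminus to polyhistidine and DsRed, expressed in E. coli BL21-CodonPlus and purified on Ni–NTA.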

Sequence	binding signal
CGAGCTCACGAGGCGGGGCAGGCGGCGGCGGGCGGCGGCGCGGAGTCACCTAGTGCAG	8260 fluorescence intensity (a.u.)
TGATTGCCTTCTCGATTTTGTTTGTCATTGCGTCTTTGCACGGAGTCACCTAGTGCAG	8190 fluorescence intensity (a.u.)
GCTTGTGATAGAATCAATTTACCCTTGCATTTATGGCTAACGGAGTCACCTAGTGCAG	9970 fluorescence intensity (a.u.)
GGCACTACCACTTGTACTAGCTGGAGTAGTACGGACTTACCGGAGTCACCTAGTGCAG	8120 fluorescence intensity (a.u.)
TTCTCCTCCTCCGTCTCGAGCGAGCTCTCTCCTTCCTTGTCGGAGTCACCTAGTGCAG	8380 fluorescence intensity (a.u.)
CACACCTGTCACCGTCCCATCCCCACCTCGGCCACAGAGACGGAGTCACCTAGTGCAG	8460 fluorescence intensity (a.u.)
CACCATCTCACCATCTCACTACCCACACTGTTCCATGGGGCGGAGTCACCTAGTGCAG	8340 fluorescence intensity (a.u.)
TCTGAAACTCTCTGCTCTGTCTGTCCGTGCATCTTCTTCCCGGAGTCACCTAGTGCAG	16300 fluorescence intensity (a.u.)
CGTGGTTACGTGAAATTTACTACTATCTCTGTCTTAAAATCGGAGTCACCTAGTGCAG	9220 fluorescence intensity (a.u.)
GTCGTCATCGTCGTCGTTGTCTGCCATTGCCCCGCTCTGCCGGAGTCACCTAGTGCAG	9970 fluorescence intensity (a.u.)
CACAACCACATTGGTCCCTCGGATTTCCCTCCTCTCTTCTCGGAGTCACCTAGTGCAG	11800 fluorescence intensity (a.u.)
GATGACGACGGCGATGACGGCGGGGCGGTTTGGAGCGGGGCGGAGTCACCTAGTGCAG	13200 fluorescence intensity (a.u.)
AATTCTATGCCTCGATACATTTTTGGTGTTTATTATGGTTCGGAGTCACCTAGTGCAG	8460 fluorescence intensity (a.u.)
CCGCCGGCCGCTTCCACGCCTCCGTCGACCTCGCCAAGTCCGGAGTCACCTAGTGCAG	9580 fluorescence intensity (a.u.)
TCCGGGTGAAATCTTGATTCTTCTTCCTTAAAATTGTATTCGGAGTCACCTAGTGCAG	8240 fluorescence intensity (a.u.)
GGAATAGAGTTTATTTGAGAAGGGTGGGAATGGATTTAAACGGAGTCACCTAGTGCAG	8470 fluorescence intensity (a.u.)
TAATTAGTAGGAAACACGAAAATCAAACTAAAAACTAGAACGGAGTCACCTAGTGCAG	13400 fluorescence intensity (a.u.)
AGACTTGGTCACTGATATGCGAGCCCACTACTTCTAGACCCGGAGTCACCTAGTGCAG	9470 fluorescence intensity (a.u.)
TTTGGATGGAGGGTTTTGGGTTGATAGGACATGGCGGCCTCGGAGTCACCTAGTGCAG	11100 fluorescence intensity (a.u.)
ACATAACCCTTGTTGATGGGCGGCATCTTCTCGTTCATTCCGGAGTCACCTAGTGCAG	11600 fluorescence intensity (a.u.)
GGCCCTTATCGGCGCCGTTGACTCCTTTCGGCCAGTCGGCCGGAGTCACCTAGTGCAG	10500 fluorescence intensity (a.u.)

Sequence	binding signal
ATCACCTTCCGCTGGCTCGCCACCCGCCCCATGCGCCGCCCGGAGTCACCTAGTGCAG	11300 fluorescence intensity (a.u.)
GTCTATATCTATACTTCATTGTCAACACCGCCGCCACTGCCGGAGTCACCTAGTGCAG	8220 fluorescence intensity (a.u.)
GGTGCATATTTGATCTCGCTTTCGCAACCGTTCGATTGGTCGGAGTCACCTAGTGCAG	8180 fluorescence intensity (a.u.)
CCGCCCATGCCATGGCTCCCTGACCTTTCCGCGGCTCAACCGGAGTCACCTAGTGCAG	11900 fluorescence intensity (a.u.)
CTGTAAATTTCCCGGTGGCTTGTCGCATCTCGTTCATCGTCGGAGTCACCTAGTGCAG	8190 fluorescence intensity (a.u.)
GGTCCCGTTTCCGTTTTTTCCTTTTTTTTTCTTTTTCTCTCGGAGTCACCTAGTGCAG	14600 fluorescence intensity (a.u.)
TTTTTTATGGGTGGAGGGAGTAGTGTAGGAGTATAGTATACGGAGTCACCTAGTGCAG	8810 fluorescence intensity (a.u.)
AGGAGGCGCTACCTTCTATTCCTCACCGGCTCACCGCTATCGGAGTCACCTAGTGCAG	9700 fluorescence intensity (a.u.)
TGGTGGAATAGTTCAAACCGAGGGGAGGGGCATTCCGGGACGGAGTCACCTAGTGCAG	9580 fluorescence intensity (a.u.)
CACGCCATTAAGCTTTTTTTATATACATATAGTCAATGTTCGGAGTCACCTAGTGCAG	9130 fluorescence intensity (a.u.)
AGGAACCCCGCGCCGCGCGCACGCCACCCGCGTCCTATCCCGGAGTCACCTAGTGCAG	11600 fluorescence intensity (a.u.)
GGCCAAAATTTTTCCGAAGTCGTTGTTCTGCTTCTCCATGCGGAGTCACCTAGTGCAG	8370 fluorescence intensity (a.u.)
GTGCAGCTGTATCCCGTCGTTTTTTCTGACGTGGCACGCACGGAGTCACCTAGTGCAG	9140 fluorescence intensity (a.u.)
ACTGCTGCTTTTTTTTTTTCATTTTGGCCCAATATTATTACGGAGTCACCTAGTGCAG	11000 fluorescence intensity (a.u.)
TTCCATTCTACAGGGGTCGTATTTTCAGTCACCTCAATTCCGGAGTCACCTAGTGCAG	8720 fluorescence intensity (a.u.)
CCGTCGCTCCACCTTGGGTCATGCTATCGCTCTGTCTTGACGGAGTCACCTAGTGCAG	10300 fluorescence intensity (a.u.)
CCACCATCATTTTTTTTAAAAAAACTCAACAACGTTCACCCGGAGTCACCTAGTGCAG	8990 fluorescence intensity (a.u.)
ACAATTGCCGCGGTTCCTCCTCACCGTCTTCTCGTTCCACCGGAGTCACCTAGTGCAG	8450 fluorescence intensity (a.u.)
CATTTGCGTGCCTGATTAATCCTCTCGTCATCTCACCTCACGGAGTCACCTAGTGCAG	9110 fluorescence intensity (a.u.)
GCGGGTCGACACCAGTCGCGGTCATAGCCTCACCGTCCATCGGAGTCACCTAGTGCAG	8150 fluorescence intensity (a.u.)
AATAAAGTTGGGTGGTTGGGGCGCGCGATAGGAGTAAATCCGGAGTCACCTAGTGCAG	17400 fluorescence intensity (a.u.)

Five entries picked at random from the list so far, as already listed:
Sequence	binding signal
GTCGTCATCGTCGTCGTTGTCTGCCATTGCCCCGCTCTGCCGGAGTCACCTAGTGCAG	9970 fluorescence intensity (a.u.)
CGTGGTTACGTGAAATTTACTACTATCTCTGTCTTAAAATCGGAGTCACCTAGTGCAG	9220 fluorescence intensity (a.u.)
GCTTGTGATAGAATCAATTTACCCTTGCATTTATGGCTAACGGAGTCACCTAGTGCAG	9970 fluorescence intensity (a.u.)
ACATAACCCTTGTTGATGGGCGGCATCTTCTCGTTCATTCCGGAGTCACCTAGTGCAG	11600 fluorescence intensity (a.u.)
TGATTGCCTTCTCGATTTTGTTTGTCATTGCGTCTTTGCACGGAGTCACCTAGTGCAG	8190 fluorescence intensity (a.u.)

Following part.

Sequence	binding signal
CCGTCTCTGTCCGTACTCACCACCACCAACGCTGTGCACCCGGAGTCACCTAGTGCAG	10300 fluorescence intensity (a.u.)
GGAGCACCGCCCACCGCTCGTCCCCACCGCGGCCGGTGCCCGGAGTCACCTAGTGCAG	8340 fluorescence intensity (a.u.)
CCTTAGGTCTCTCACAGTGCAGCGTTCTCTTATCCCATTCCGGAGTCACCTAGTGCAG	8320 fluorescence intensity (a.u.)
CATTCGCTTTTGAAATTATAGATCCGTATTGAGTCGGTTTCGGAGTCACCTAGTGCAG	9440 fluorescence intensity (a.u.)
AAAGTTACCTAGTTGCATTCTAGTACCATCCACATATTTTCGGAGTCACCTAGTGCAG	9500 fluorescence intensity (a.u.)
GCGGGCTGTTTTTTTCTTGCGGTTTGGTTTGGGATTTCTGCGGAGTCACCTAGTGCAG	17400 fluorescence intensity (a.u.)
TTTATTGGCCCCTTGCTCTCTGCTGCCTTTATCATCACCACGGAGTCACCTAGTGCAG	8120 fluorescence intensity (a.u.)
AGCAGGTTCTACCGAAATGATTTACAATTTTGGCCGTGTTCGGAGTCACCTAGTGCAG	8320 fluorescence intensity (a.u.)
ATTCCGTGCTCACCTGAACCGCTGAACGAATATGCGCATACGGAGTCACCTAGTGCAG	9300 fluorescence intensity (a.u.)
TAACTTATTTGGGGCATGTAATCAGTGCTGCTGGGGTATCCGGAGTCACCTAGTGCAG	8850 fluorescence intensity (a.u.)
CCTTTTTGTCCTGTTATAAAATTCACTGCCTGAATTCAGACGGAGTCACCTAGTGCAG	8280 fluorescence intensity (a.u.)
GCTATCTCCATCGTCTCTTTCCTTGACCACAGCGGCAATGCGGAGTCACCTAGTGCAG	9860 fluorescence intensity (a.u.)
AAGGTTGTCCTGTATATCCTCTCGAGGTCTTGATTAGCTTCGGAGTCACCTAGTGCAG	9560 fluorescence intensity (a.u.)
ACCGCGTCTACTCCACAGAGCTCTTCTTCTTCCACGCGCCCGGAGTCACCTAGTGCAG	10000 fluorescence intensity (a.u.)
TAAATTATTTTTCGTTTGTAAATACACTGTTTCGCTTATTCGGAGTCACCTAGTGCAG	10200 fluorescence intensity (a.u.)
TATCTTGGTCTGGTCACTTTTATAATGTTTGGGTGCGTTTCGGAGTCACCTAGTGCAG	9910 fluorescence intensity (a.u.)
AATCACTTCCGTACTTTTTTTTCTATAGTGGCCTTTTACACGGAGTCACCTAGTGCAG	13000 fluorescence intensity (a.u.)
AGACATTCTCCATTTTCTTTCTTCTCTTCACTCACACTCACGGAGTCACCTAGTGCAG	8800 fluorescence intensity (a.u.)
ATGAGCGGGTCGTGTGTTCGTGTCCACCCCTATCCCCTCACGGAGTCACCTAGTGCAG	9130 fluorescence intensity (a.u.)
TACCCTTATATGTCAAAGGGGTGGCCTTGTTCTATATGTTCGGAGTCACCTAGTGCAG	8240 fluorescence intensity (a.u.)
CTCAGCTTAGGCGATTGCTTCTCATGGGTGTTTCATCCTTCGGAGTCACCTAGTGCAG	8540 fluorescence intensity (a.u.)

Sequence	binding signal
GTGTTCTGCGTTCTTATGTACAGGGCCTCTACAAACTGCACGGAGTCACCTAGTGCAG	10600 fluorescence intensity (a.u.)
CACTTACAAAACAGCACTGTCACTTCTCTCTCTCTCTCTCCGGAGTCACCTAGTGCAG	9050 fluorescence intensity (a.u.)
GGATACCGCCCACAATACTGCCTTCGGAGTCGATTTGTACCGGAGTCACCTAGTGCAG	8620 fluorescence intensity (a.u.)
GTGGGCCAATTCTGCAATCATCCACACAATCAGCCATCAACGGAGTCACCTAGTGCAG	8180 fluorescence intensity (a.u.)
GGGTTTCGCGGATCGAGGGGCGCCGCGGCTAGGGTTTGGGCGGAGTCACCTAGTGCAG	9080 fluorescence intensity (a.u.)
GTCTTTACCATGTCATCGTCCTTTATTTCTAAATGAAATTCGGAGTCACCTAGTGCAG	10300 fluorescence intensity (a.u.)
AAAATTTCCGTACCGTTTTCACCCTTAATTCCTTCCCGTTCGGAGTCACCTAGTGCAG	13400 fluorescence intensity (a.u.)
TGCTTGTTCCGGTTCCTTCCCAACCCTTTTGCAAGAACACCGGAGTCACCTAGTGCAG	9120 fluorescence intensity (a.u.)
AATGGTTTGGATCTTTAAATATGCTGGGAGTTTAATTATACGGAGTCACCTAGTGCAG	9250 fluorescence intensity (a.u.)
CTTGTGTGGGTGGTACTATTTGTGCTTGCTATAGCACAACCGGAGTCACCTAGTGCAG	10700 fluorescence intensity (a.u.)
CACACCATTTCCTTTTTCTTTAGAAAATATCACACTATCACGGAGTCACCTAGTGCAG	9060 fluorescence intensity (a.u.)
TTCCCGCCCTTTTCCCCTATATATATCGCTCGCCTCGGAGCGGAGTCACCTAGTGCAG	8640 fluorescence intensity (a.u.)
CCCCGCGTCATTACTTCGTCTTCATCGCTGCCTTCCATGCCGGAGTCACCTAGTGCAG	8300 fluorescence intensity (a.u.)
CCTCTCCTTCCATTGATCCTTTCACATCCTTTAATTTCTCCGGAGTCACCTAGTGCAG	10800 fluorescence intensity (a.u.)
CCTGCGACTGCGACTTCTTCCTCTGCCTTCTGCTCTCTGCCGGAGTCACCTAGTGCAG	9660 fluorescence intensity (a.u.)
AGGGGAAATTTTTTTGCTTTGCGCGTGGGAGAGAGAAGGACGGAGTCACCTAGTGCAG	9360 fluorescence intensity (a.u.)
GGCTTGACCAACCACCGCGCGCGCCGCCGTCTTTCGCCGACGGAGTCACCTAGTGCAG	10400 fluorescence intensity (a.u.)
GCCGCGCCCCATCCGGCCATCCGCCACCTCTCCGCCGCGCCGGAGTCACCTAGTGCAG	9150 fluorescence intensity (a.u.)
AAGGATAAGGGGTTTGATTAGAAAAAATTGATCTATAAGTCGGAGTCACCTAGTGCAG	8640 fluorescence intensity (a.u.)
GACGCTCTTGTCCCGGTTATGATTTGCACCTTTTTCTTTTCGGAGTCACCTAGTGCAG	9120 fluorescence intensity (a.u.)
GGGAGTCGTTTTTGTTCTGTGTATGATATTTATGCTTTTCCGGAGTCACCTAGTGCAG	13300 fluorescence intensity (a.u.)

Rewritten bar-delimited: part of the list above
Sequence | binding signal
ACATAACCCTTGTTGATGGGCGGCATCTTCTCGTTCATTCCGGAGTCACCTAGTGCAG | 11600 fluorescence intensity (a.u.)
GGCCCTTATCGGCGCCGTTGACTCCTTTCGGCCAGTCGGCCGGAGTCACCTAGTGCAG | 10500 fluorescence intensity (a.u.)
